Literature values as cited in paper PMC7762046, “Fragments of a Wheat Hevein-Like Antimicrobial Peptide Augment the Inhibitory Effect of a Triazole Fungicide on Spore Germination of Fusarium oxysporum and Alternaria solani” (Antibiotics, 2020).

Tested on: soil-borne and foliar cereal-damaging fungi
Conditions: cited from earlier work
Source text: Along with the structural and functional similarities with other hevein-like AMPs, WAMPs have a number of specific characteristics, display an in vitro inhibitory activity towards various microorganisms including plant pathogenic fungi, and are able to inhibit a fungal effector fungalysin that cleaves plant chitinases.

## AQRCGDQARGAKCPNCLCCGKYGFCGSGDAYCGKGSCQSQCRGCR [WAMP-2, hevein-like cysteine-rich antimicrobial peptide of wheat Triticum kiharae, 45 residues, recombinant from E. coli BL21 (DE3)]
  Sensitizing activity to tebuconazole (Folicur EC 250): inactive as a sensitizer
